Experimental data reported in article PMC2693666.
These are yes or no findings as the source states them, for the method shown. Some results given as binding are weak or reduced against the parent protein; the word gives no strength.

Sequences of proteins named here, by UniProt entry; tags and fusion partners are left off. Residues count along the entry.
UniProt Q9QUG3, residues 26-155: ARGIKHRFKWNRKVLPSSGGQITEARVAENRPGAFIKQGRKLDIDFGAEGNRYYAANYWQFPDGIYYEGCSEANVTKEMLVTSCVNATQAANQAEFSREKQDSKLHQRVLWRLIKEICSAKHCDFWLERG

Columns and labels:
Assay in all cases: ELISA; only the target purified
[1] = molecular target: recMoDpl(26–155) (mouse) (UniProt Q9QUG3)
[2] = molecular target: T1, rat alpha-1-inhibitor-3 (α1I3), methylamine-activated (FAST) form (rat) (UniProt P14046)
T1 sequence (chain, methylamine-activated): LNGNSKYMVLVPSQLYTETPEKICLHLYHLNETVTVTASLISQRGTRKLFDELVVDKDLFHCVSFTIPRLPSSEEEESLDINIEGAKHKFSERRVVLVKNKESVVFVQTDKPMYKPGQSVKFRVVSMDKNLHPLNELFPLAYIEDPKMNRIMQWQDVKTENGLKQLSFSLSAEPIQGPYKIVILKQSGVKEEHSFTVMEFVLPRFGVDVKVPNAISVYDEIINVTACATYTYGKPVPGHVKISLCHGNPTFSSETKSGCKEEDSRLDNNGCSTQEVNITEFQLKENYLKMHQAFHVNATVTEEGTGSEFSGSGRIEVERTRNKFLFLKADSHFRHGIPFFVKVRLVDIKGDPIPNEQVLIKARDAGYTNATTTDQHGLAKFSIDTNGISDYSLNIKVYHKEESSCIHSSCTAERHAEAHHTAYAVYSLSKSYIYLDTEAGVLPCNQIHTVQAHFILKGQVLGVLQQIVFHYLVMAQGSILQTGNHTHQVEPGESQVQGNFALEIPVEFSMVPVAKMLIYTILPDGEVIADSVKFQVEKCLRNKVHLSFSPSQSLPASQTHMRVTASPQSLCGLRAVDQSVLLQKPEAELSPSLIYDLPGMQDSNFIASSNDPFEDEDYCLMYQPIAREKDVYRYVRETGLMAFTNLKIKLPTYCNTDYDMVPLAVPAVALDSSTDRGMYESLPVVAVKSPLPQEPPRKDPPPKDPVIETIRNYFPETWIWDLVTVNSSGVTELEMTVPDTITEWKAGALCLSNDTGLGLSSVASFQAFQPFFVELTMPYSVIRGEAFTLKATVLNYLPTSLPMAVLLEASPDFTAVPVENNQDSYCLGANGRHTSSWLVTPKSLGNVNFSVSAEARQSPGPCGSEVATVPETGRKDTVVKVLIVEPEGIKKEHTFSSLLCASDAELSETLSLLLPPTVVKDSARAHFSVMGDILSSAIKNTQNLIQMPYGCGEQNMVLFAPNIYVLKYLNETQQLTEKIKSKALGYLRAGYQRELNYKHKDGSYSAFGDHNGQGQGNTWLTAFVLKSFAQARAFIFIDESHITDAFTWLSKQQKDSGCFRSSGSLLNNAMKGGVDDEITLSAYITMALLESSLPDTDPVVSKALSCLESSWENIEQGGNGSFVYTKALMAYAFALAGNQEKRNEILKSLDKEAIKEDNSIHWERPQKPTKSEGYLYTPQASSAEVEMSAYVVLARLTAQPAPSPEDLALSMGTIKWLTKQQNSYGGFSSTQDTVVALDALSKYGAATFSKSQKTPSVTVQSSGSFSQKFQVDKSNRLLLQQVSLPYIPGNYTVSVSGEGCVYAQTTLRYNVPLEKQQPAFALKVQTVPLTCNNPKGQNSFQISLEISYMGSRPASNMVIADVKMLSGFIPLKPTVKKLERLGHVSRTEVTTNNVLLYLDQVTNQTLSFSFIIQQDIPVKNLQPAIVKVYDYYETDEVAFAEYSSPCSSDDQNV

[3] = molecular target: T2, rat alpha-1-inhibitor-3 (α1I3), native form, purified (rat) (UniProt P14046)
T2 sequence: T1 sequence (chain, methylamine-activated)

## MoPrP-Fc (from UniProt P04925 23-231) (Fc fusion)
[1]
  binding: binds
[2]
  binding: no binding
[3]
  binding: no binding
